PubChem BioAssay AID1224828, NIAID, 2016
Screen: 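Regulators linking TLR4 signalling to p65 nuclear translocation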 (primary screen). System: mouse RAW264.7 G9 macrophage reporter cells (GFP-p65, Tnf promoter-mCherry). Knock-down reagent: siRNA pool against mouse genes, 100 nM. Timing: 2 days siRNA transfection, then 40 min LPS before fixation. Conditions: LPS (Salmonella minnesota R595) at 10 ng/ml. Read-out: 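Microscopy ratio of nuclear to perinuclear-ring GFP-p65 signal, scaled to the plate median; gene score is the average of two replicate robust z-scores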. Scale: p65 translocation robust z-score: higher = more nuclear NF-kappaB p65 after LPS than the plate median; nuclear/cytoplasmic p65 ratio: higher = more nuclear NF-kappaB p65. Call rule: 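Called active when z exceeds 3.3 or falls under -1.56 (median of Tlr4 controls), giving activity score of at least 50; no calls for control wells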. Meaning of the calls: active = hit (p65 shift raised or lowered); inactive = no clear change.
The whole screen tested about 17,000 reagents; below is a part drawn at random. 762 of them (4.5%) count as active. 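Active calls include both raised and lowered p65 entry, mostly lowered; wells with fewer than 50 cells lack a z-score.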 The raw values are shown without normalisation. Entries without a mark were called inactive.

no.	Target gene	p65 translocation robust z-score	nuclear/cytoplasmic p65 ratio, rep 1	nuclear/cytoplasmic p65 ratio, rep 2	low cell count flag
1	Syt4	-0.7	1.25	1.13	enough cells to score
2	Prl	0.85	1.63	1.5	enough cells to score
3	Hif1an	-0.6	1.39	1.34	enough cells to score
4	Slc39a10		0	1.51	fewer than 50 cells per well; well left out of scoring
5	Eng	-0.02	1.42	1.4	enough cells to score
6	Fdxacb1	-2.03 (active)	1.44	1.22	enough cells to score
7	Ptpn9	-0.73	1.39	1.32	enough cells to score
8	Or6c75		1.67	1.1	fewer than 50 cells per well; well left out of scoring
9	Zfp148	0.81	1.62	1.62	enough cells to score
10	Alms1	0.6	1.75	1.67	enough cells to score
11	Slco1a1	2.06	1.86	1.46	enough cells to score
12	Dsp		1.43	1.35	fewer than 50 cells per well; well left out of scoring
13	Il6	-0.26	1.42	1.37	enough cells to score
14	Or10v1	1.04	1.79	1.54	enough cells to score
15	Dars1	-1.08	1.34	1.22	enough cells to score
16	Osbpl9	-0.51	1.34	1.21	enough cells to score
17	Aqp9	0.52	1.74	1.65	enough cells to score

Continued, starting with the last 5 of the part before.
no.	Target gene	p65 translocation robust z-score	nuclear/cytoplasmic p65 ratio, rep 1	nuclear/cytoplasmic p65 ratio, rep 2	low cell count flag
13	Il6	-0.26	1.42	1.37	enough cells to score
14	Or10v1	1.04	1.79	1.54	enough cells to score
15	Dars1	-1.08	1.34	1.22	enough cells to score
16	Osbpl9	-0.51	1.34	1.21	enough cells to score
17	Aqp9	0.52	1.74	1.65	enough cells to score
18	Ctsc	1.85	1.75	1.59	enough cells to score
19	Hey1	-1.59 (active)	1.27	1.13	enough cells to score
20	Grm7	-1.48	1.26	1.41	enough cells to score
21	Nfatc3	-0.54	1.31	1.33	enough cells to score
22	Or5bw2		1.67	1.48	fewer than 50 cells per well; well left out of scoring
23	A130023I24Rik	0.16	1.19	1.55	enough cells to score
24	Gorasp2	1.29	1.78	1.79	enough cells to score
25	4930470P17Rik		1.19	1.32	fewer than 50 cells per well; well left out of scoring
26	Tmed6	0.47	1.14	1.48	enough cells to score
27	Vav3	-0.11	1.52	1.51	enough cells to score
28	Atp6v1g2	0.53	1.63	1.64	enough cells to score
29	Rem1	0.05	1.65	1.4	enough cells to score
30	Or5aq7	-1.08	1.45	1.28	enough cells to score
31	Foxo6	0.79	1.66	1.62	enough cells to score
32	Htr5a	-0.45	1.39	1.57	enough cells to score
33	Fbxw26	1.52	2.06	1.68	enough cells to score
34	Trim23	0.85	1.61	1.64	enough cells to score
35	B230220B15Rik	-0.64	1.43	1.49	enough cells to score
36	Loxl2	2.37	2.04	1.93	enough cells to score
37	Timcc		1.29	1.37	fewer than 50 cells per well; well left out of scoring
38	Eprs1	-1.57 (active)	1.42	1.16	enough cells to score
39	Dnase1l3		1.32	1.31	fewer than 50 cells per well; well left out of scoring
40	Lynx1	0.93	1.91	1.64	enough cells to score
